# According to the supplement of paper PMC8728848:
# The list shows a part of the results.
# B1: GS7807F-bth-514-18-514 (Bacteroides thetaiotaomicron) (protein)
# chain: AGSCTGNFEEYNTNQFQIHEADPSTLMKSMIETIVNIQQNDSQMMDQMVGQLGGYLTCANVWSGTNFGTFNQSDAWNAGPWNTNFEKIYGNFFQIQEATNESGHYYAFARMIRAITMLRVADCYGPMPYSQVKKGNFYVAYDTEEQVYKNIMEDFASAANVLYNYYKDTNGNAPLASNDPVFSGNYANWARLANSMRLRVAIRISTAYPEMAKENAEAAASHEAGLIEANNDNAMMDCGSQTNPYQLAAVSWGDLRVNANIVDYMNGYGDPRMSKYFNHSTFTGHTQEYVGMRSGEDGFAKSDVAGYSIPAITGTSKLLVFCAAETAFLRAEGKLKNWSVGNKSAKEYYEEGIKLSMEQYGTTMPDNYLTNTEKPTVSHNNDPRGHAYTISNTVAVAWNDNNEEENLQRIITQKWIANYPLGLEAWAEYRRTGYPELYPCIDNLSPSGVDSKRGMRRLRFPYTEVQNNHSNYQQGVSYLKNGGPDNEATDLSWGKTN
# Experiments:
# Experiment in all cases: glycan array binding signal (z-score within array); higher = stronger binding
# Conditions in all cases: glycan notation: IUPAC condensed, linker removed
# [1] = molecular target: Gal(b1-4)GlcNAc(b1-3)[Fuc(a1-3)GlcNAc(b1-6)]Gal(b1-4)Glc
# Method in brief: (§1)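 The Consortium for Functional Glycomics database supplied 3228 glycan arrays, of which those lacking an available protein sequence were dropped. The binding signal, a within-array Z-score, was averaged across arrays of the same protein sequence and across linkers. Negative scores can be read as non-binding.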
# [2] = molecular target: Gal(b1-4)GlcNAc(b1-3)[Gal(b1-4)GlcNAc(b1-6)]Gal(b1-4)GlcNAc
# Method in brief: as §1
# [3] = molecular target: Gal(b1-4)GlcNAc(b1-3)[GlcNAc(b1-6)]Gal(b1-4)GlcNAc
# Method in brief: as §1
# [4] = molecular target: Gal(b1-4)GlcNAc(b1-6)Gal(b1-4)GlcNAc
# Method in brief: as §1
# [5] = molecular target: Gal(b1-4)GlcNAc(b1-6)GalNAc
# Method in brief: as §1
# [6] = molecular target: Gal(b1-4)GlcNAc(b1-6)[Gal(b1-3)]GalNAc
# Method in brief: as §1
# [7] = molecular target: Gal(b1-4)GlcNAc(b1-6)[Gal(b1-4)GlcNAc(b1-3)]GalNAc
# Method in brief: as §1
# Gal(b1-4)GlcNAc6P = molecular target: Gal(b1-4)GlcNAc6P
# Method in brief: as §1
# Gal(b1-6)Gal = molecular target: Gal(b1-6)Gal
# Method in brief: as §1
# Gal3S(b1-3)GalNAc = molecular target: Gal3S(b1-3)GalNAc
# Method in brief: as §1
# Gal3S(b1-3)GlcNAc = molecular target: Gal3S(b1-3)GlcNAc
# Method in brief: as §1
# [8] = molecular target: Gal3S(b1-3)[Fuc(a1-4)]GlcNAc
# Method in brief: as §1
# Gal3S(b1-4)Glc = molecular target: Gal3S(b1-4)Glc
# Method in brief: as §1
# Gal3S(b1-4)Glc6S = molecular target: Gal3S(b1-4)Glc6S
# Method in brief: as §1
# Gal3S(b1-4)GlcNAc = molecular target: Gal3S(b1-4)GlcNAc
# Method in brief: as §1
# [9] = molecular target: Gal3S(b1-4)[Fuc(a1-3)]Glc6S
# Method in brief: as §1
# [10] = molecular target: Gal3S(b1-4)[Fuc(a1-3)]GlcNAc
# Method in brief: as §1
# [11] = molecular target: Gal3S(b1-4)[Fuc(a1-3)]GlcNAc6S
# Method in brief: as §1
# Gal3S4S(b1-4)GlcNAc = molecular target: Gal3S4S(b1-4)GlcNAc
# Method in brief: as §1
binder,measurement,setting,value
B1,glycan array binding signal (z-score),[1],1.53
same,glycan array binding signal (z-score),[2],0.003
same,glycan array binding signal (z-score),[3],0.49
same,glycan array binding signal (z-score),[4],1.94
same,glycan array binding signal (z-score),[5],-0.041
same,glycan array binding signal (z-score),[6],1.34
same,glycan array binding signal (z-score),[7],0.25
same,glycan array binding signal (z-score),Gal(b1-4)GlcNAc6P,0.499
same,glycan array binding signal (z-score),Gal(b1-6)Gal,1.37
same,glycan array binding signal (z-score),Gal3S(b1-3)GalNAc,-0.485
same,glycan array binding signal (z-score),Gal3S(b1-3)GlcNAc,-0.663
same,glycan array binding signal (z-score),[8],-0.143
same,glycan array binding signal (z-score),Gal3S(b1-4)Glc,0.164
same,glycan array binding signal (z-score),Gal3S(b1-4)Glc6S,-0.587
same,glycan array binding signal (z-score),Gal3S(b1-4)GlcNAc,-0.675
same,glycan array binding signal (z-score),[9],3.48
same,glycan array binding signal (z-score),[10],-0.367
same,glycan array binding signal (z-score),[11],0.016
same,glycan array binding signal (z-score),Gal3S4S(b1-4)GlcNAc,-0.686

# Copied from the listing for reference:
binder,measurement,setting,value
B1,glycan array binding signal (z-score),[1],1.53
same,glycan array binding signal (z-score),[2],0.003
same,glycan array binding signal (z-score),[3],0.49
same,glycan array binding signal (z-score),[4],1.94
same,glycan array binding signal (z-score),[5],-0.041
